Test system: HepG2 cells
Test: in vitro cytotoxicity against HepG2 cells by WST-1 assay
Format: cell-based, human
Settings: HepG2, 48 hours of treatment, DOX equivalent concentration
Procedure: Dox-CPP, and DOX-FPH were prepared by the method of Example 1. WST-1 assay is water-soluble tetrazolium salt assay that provides a mechanism to measure cell viability and cytotoxicity in cells. An increase in the number of viable cells leads to an increase in the activity of mitrochondrial dehydrogenases which in turn results in an increase in the amount of formazan dye produced. The formazan dye produced from WST-1 by viable cells is quantified by colorimetric measurement of the absorbance pf the dye at OD-44-nm. HepG2 cells were seeded on 96 well plates at a density of 5×10^3 per well. After 24 hours of incubation, DOX-CPP, DOX-FPH, Doxosome, and Free-DOX were mixed into fresh 0.5% FBS DMEM (ATCC-formulated Eagle's Minimum Essential Medium, catalog No. 30-2003) culture medium with equivalent DOX concentrations ranging from 0, 0.25, 2.5, 5, 10, and 20 μM. All DOX solutions were then added to the 96 well plates. Unloaded CPP and unloaded FPH were used as controls. After treatment for 48 hours, the cultured medium was removed and fresh 0.5% FBS DMEM medium containing WST-1 dye (90 μl medium plus 10 μl WST-1 reagent) was added to each well and incubated again for 2 hours at 37° C. The absorbance was measured at 440 nm using microplate reader and cell viability was expressed as a percentage of the untreated cells. All treatment groups had two replicates.

Q: `COc1cccc2c1C(=O)c1c(O)c3c(c(O)c1C2=O)C[C@@](O)(C(=O)CO)C[C@@H]3O[C@H]1C[C@H](N)[C@H](O)[C@H](C)O1` [Free-DOX, doxorubicin] was tested. Which IC50 did it give?
A: 4.3 µM

Reference: patent publication US20250000908A1, “METHODS FOR PREPARING AND ADMINISTERING CRYOPRESERVED PLATELETS AND PLATELET DERIVATIVES LOADED WITH ANTI-CANCER DRUGS” (Cellphire, Inc., priority 2023, published 2025)
